Results published in publication PMC7547098.
Results are given in words; binding and its absence hold for the method and conditions named. Some binding calls cover weakened binding; strength is not graded here.

Chains of the proteins cited; added tags and fusions are not shown.
UniProt P61956: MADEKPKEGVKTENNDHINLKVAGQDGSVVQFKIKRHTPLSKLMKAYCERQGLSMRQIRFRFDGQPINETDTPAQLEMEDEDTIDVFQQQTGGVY

Target: small ubiquitin-like modifier 2 (SUMO2), two-hybrid bait (UniProt P61956)
Assay: two-hybrid; yeast two-hybrid screen for cardiac interactors of SUMO2

binding: binds
B1: HectD3, two-hybrid prey (protein, UniProt Q5T447 1-861)
chain: MAGPGPGAVLESPRQLLGRVRFLAEAARSLRAGRPLPAALAFVPREVLYKLYKDPAGPSRVLLPVWEAEGLGLRVGAAGPAPGTGSGPLRAARDSIELRRGACVRTTGEELCNGHGLWVKLTKEQLAEHLGDCGLQEGWLLVCRPAEGGARLVPIDTPNHLQRQQQLFGVDYRPVLRWEQVVDLTYSHRLGSRPQPAEAYAEAVQRLLYVPPTWTYECDEDLIHFLYDHLGKEDENLGSVKQYVESIDVSSYTEEFNVSCLTDSNADTYWESDGSQCQHWVRLTMKKGTIVKKLLLTVDTTDDNFMPKRVVVYGGEGDNLKKLSDVSIDETLIGDVCVLEDMTVHLPIIEIRIVECRDDGIDVRLRGVKIKSSRQRELGLNADLFQPTSLVRYPRLEGTDPEVLYRRAVLLQRFIKILDSVLHHLVPAWDHTLGTFSEIKQVKQFLLLSRQRPGLVAQCLRDSESSKPSFMPRLYINRRLAMEHRACPSRDPACKNAVFTQVYEGLKPSDKYEKPLDYRWPMRYDQWWECKFIAEGIIDQGGGFRDSLADMSEELCPSSADTPVPLPFFVRTANQGNGTGEARDMYVPNPSCRDFAKYEWIGQLMGAALRGKEFLVLALPGFVWKQLSGEEVSWSKDFPAVDSVLVKLLEVMEGMDKETFEFKFGKELTFTTVLSDQQVVELIPGGAGIVVGYGDRSRFIQLVQKARLEESKEQVAAMQAGLLKVVPQAVLDLLTWQELEKKVCGDPEVTVDALRKLTRFEDFEPSDSRVQYFWEALNNFTNEDRSRFLRFVTGRSRLPARIYIYPDKLGYETTDALPESSTCSSTLFLPHYASAKVCEEKLRYAAYNCVAIDTDMSPWEE
